{"sequences": {"note": "By UniProt entry, the sequences of proteins in these tests, tags left out.", "UniProt Q9SVC4": "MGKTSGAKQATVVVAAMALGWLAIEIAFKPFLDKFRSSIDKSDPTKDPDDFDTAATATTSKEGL"}, "source": "paper PMC11255254", "about": "“ER-associated VAP27-1 and VAP27-3 proteins functionally link the lipid-binding ORP2A at the ER-chloroplast contact sites” (Nature Communications, 2024)", "binders": {"B1": {"name": "cYFP-VAP27-1 (full-length VAP27-1 fused to the C-terminal half of YFP) (protein, UniProt Q8VZ95 1-256)", "chain": "MSNIDLIGMSNRDLIGMSNSELLTVEPLDLQFPFELKKQISCSLYLTNKTDNNVAFKVKTTNPKKYCVRPNTGVVLPRSTCEVLVTMQAQKEAPSDMQCKDKFLLQGVIASPGVTAKEVTPEMFSKEAGHRVEETKLRVTYVAPPRPPSPVHEGSEEGSSPRASVSDNGHGSEFSFERFIVDNKAGHQENTSEARALITKLTEEKQSAIQLNNRLQRELDQLRRESKKSQSGGIPFMYVLLVGLIGLILGYIMKRT"}}, "biological_target": "OEP7-nYFP (Outer Envelope Protein 7 fused to the N-terminal half of YFP) (Arabidopsis thaliana) (UniProt Q9SVC4)", "assay": "split reporter; BiFC with split Venus YFP (cYFP and nYFP fusions), transient expression in tobacco leaf epidermal cells, confocal imaging; used by the authors as a reporter of membrane proximity", "note": "Results are given in words; binding and its absence hold for the method and conditions named. In cells and extracts the contact can be indirect. Tags and fused reporters may be left off the sequences shown."}
{"binder": "B1", "values": [{"measurement": "binding", "result": "no binding"}]}
